This note sets out measurements from patent US20140073518A1.

By UniProt entry, the sequences of proteins in these tests, tags left out. Where a name states a change or a piece, a line headed by the entry shows the natural chain unless it says otherwise. Residues count along the entry.
UniProt P08581, residues 25-932: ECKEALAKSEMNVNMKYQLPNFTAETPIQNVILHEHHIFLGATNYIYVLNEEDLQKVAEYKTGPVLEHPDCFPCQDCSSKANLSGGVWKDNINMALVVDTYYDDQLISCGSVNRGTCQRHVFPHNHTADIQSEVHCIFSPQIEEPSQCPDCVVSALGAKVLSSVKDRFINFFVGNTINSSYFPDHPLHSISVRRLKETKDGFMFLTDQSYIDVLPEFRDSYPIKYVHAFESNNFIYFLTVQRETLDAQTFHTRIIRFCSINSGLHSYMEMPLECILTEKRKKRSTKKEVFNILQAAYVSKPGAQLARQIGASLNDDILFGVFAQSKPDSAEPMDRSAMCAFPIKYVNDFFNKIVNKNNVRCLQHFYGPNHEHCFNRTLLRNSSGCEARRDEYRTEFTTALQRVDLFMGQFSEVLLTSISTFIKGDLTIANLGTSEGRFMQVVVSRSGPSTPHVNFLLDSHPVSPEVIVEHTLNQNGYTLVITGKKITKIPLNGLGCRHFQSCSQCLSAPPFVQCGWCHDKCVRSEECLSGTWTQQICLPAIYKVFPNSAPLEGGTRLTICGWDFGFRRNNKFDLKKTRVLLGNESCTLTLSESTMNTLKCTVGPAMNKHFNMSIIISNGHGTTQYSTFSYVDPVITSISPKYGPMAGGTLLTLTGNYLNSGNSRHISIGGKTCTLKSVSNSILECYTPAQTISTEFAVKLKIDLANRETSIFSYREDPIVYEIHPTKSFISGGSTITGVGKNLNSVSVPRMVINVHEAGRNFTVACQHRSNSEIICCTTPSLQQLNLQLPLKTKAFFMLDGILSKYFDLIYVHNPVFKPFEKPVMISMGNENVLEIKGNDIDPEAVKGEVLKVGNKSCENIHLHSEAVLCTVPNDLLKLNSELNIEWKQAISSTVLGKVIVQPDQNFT
UniProt P14210: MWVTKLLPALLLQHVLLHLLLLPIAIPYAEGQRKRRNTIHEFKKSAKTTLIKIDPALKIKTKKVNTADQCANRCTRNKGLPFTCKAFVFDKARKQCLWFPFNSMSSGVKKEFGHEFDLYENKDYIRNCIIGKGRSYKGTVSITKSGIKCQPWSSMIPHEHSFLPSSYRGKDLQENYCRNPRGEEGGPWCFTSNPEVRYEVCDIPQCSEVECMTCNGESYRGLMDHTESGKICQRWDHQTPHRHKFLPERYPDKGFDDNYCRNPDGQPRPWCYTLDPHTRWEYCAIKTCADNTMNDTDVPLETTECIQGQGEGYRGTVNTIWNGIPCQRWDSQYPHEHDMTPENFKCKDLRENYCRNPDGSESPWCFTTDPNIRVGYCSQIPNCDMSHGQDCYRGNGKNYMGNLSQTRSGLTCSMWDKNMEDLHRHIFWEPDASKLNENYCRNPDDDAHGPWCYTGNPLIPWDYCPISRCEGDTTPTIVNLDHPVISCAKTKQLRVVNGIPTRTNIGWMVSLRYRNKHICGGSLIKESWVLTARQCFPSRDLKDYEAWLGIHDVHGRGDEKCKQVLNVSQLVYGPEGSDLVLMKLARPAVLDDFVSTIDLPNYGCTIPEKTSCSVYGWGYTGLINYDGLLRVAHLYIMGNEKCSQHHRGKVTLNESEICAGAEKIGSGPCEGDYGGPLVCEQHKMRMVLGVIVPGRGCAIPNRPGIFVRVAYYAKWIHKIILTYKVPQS

These are yes or no findings as the source states them, for the method shown. Some results given as binding are weak or reduced against the parent protein; the word gives no strength.

In test [1] the target is soluble Met receptor (UniProt P08581). In words: yeast surface display, 0.5 nM and 5 nM soluble Met.
The target is the same in test [2]. In words: yeast surface display of the binder, soluble Met at 0.5 nM and 5 nM, flow cytometry. (In flow cytometry, cells or beads pass a laser one at a time.)

Turning to “Aras4 (engineered NK1 fragment of HGF) (from UniProt P14210 28-210) (ligand)”, the binding entry with soluble Met receptor [1] and in the test with soluble Met receptor [2] was “binds” throughout.
